# This is one part of the list.
# The chains behind the UniProt entries cited, without tags or fusion partners.
# UniProt Q0JBA9, entry or part of it: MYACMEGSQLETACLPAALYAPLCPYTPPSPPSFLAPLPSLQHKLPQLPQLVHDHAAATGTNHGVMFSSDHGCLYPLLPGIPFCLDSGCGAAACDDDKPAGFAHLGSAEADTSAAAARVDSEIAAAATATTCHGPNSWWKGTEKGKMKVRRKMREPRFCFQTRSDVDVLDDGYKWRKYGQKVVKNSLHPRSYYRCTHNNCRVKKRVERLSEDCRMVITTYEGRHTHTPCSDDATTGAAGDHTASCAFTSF
# Biological target: OsWRKY34 (Oryza sativa, UniProt Q0JBA9 1-250)
# Assay: protein-binding microarray (RPBM); PBS, 2% BSA, 51.3 ng/ul salmon testes DNA, 50 uM zinc acetate, 200 nM TF, 25 C, 1 h; high values mean tight binding
# Conditions: protein: recombinant; tags: N-terminal polyhistidine and DsRed monomer fusion (pET32a); label: CyDye5-dUTP incorporated in the synthesized complementary strand; 3' TTTTT single-stranded linker to array surface; dsDNA, one strand shown
# How it was run: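 Ni–NTA purification followed expression in E. coli BL21-CodonPlus of transcription factors fused N-terminally to a polyhistidine tag and DsRed. At 200 nM in PBS with 2% BSA, salmon testes DNA and 50 µM zinc acetate, the protein was incubated for 1 h at 25 °C with a custom Agilent array that had been primer-extended with Cy5-dUTP and blocked with 2% BSA. After washing, the array was read on an Axon 4000B scanner. The binding signal is per-feature fluorescence intensity in arbitrary units.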
row,Sequence,binding signal
1,ATCATAGGGCCTGTTCACTTTAATGCAAAAAAAACCTTACCGGAGTCACCTAGTGCAG,8160 fluorescence intensity (a.u.)
2,TCCACTCGCTCTAGTTTGCCTCGTCCCCGCCGCCACCACACGGAGTCACCTAGTGCAG,8760 fluorescence intensity (a.u.)
3,CACCTGAACATTTTTGCTCCTGTTCCTTTCAGTCGCAACACGGAGTCACCTAGTGCAG,8500 fluorescence intensity (a.u.)
4,GCTGAATGTTTGGTAGGTAGGTTGGCACCAGTACTTGGCCCGGAGTCACCTAGTGCAG,8390 fluorescence intensity (a.u.)
5,TCCATCCACTCTGCCACCGCCGCTGCCGCCACCATCCACTCGGAGTCACCTAGTGCAG,9700 fluorescence intensity (a.u.)
6,CTCTTTCCTGGCCCATCTGATTCCTCTCCCTTTTTCTGTGCGGAGTCACCTAGTGCAG,10800 fluorescence intensity (a.u.)
7,GCTCGATCTTTGACCAGCCAGTGGGGTTGGAGGAGGGAGGCGGAGTCACCTAGTGCAG,10400 fluorescence intensity (a.u.)
8,CTCATTTCTCTGCAAGCTGGCCAGGGCGAGGCGGGAGGGCCGGAGTCACCTAGTGCAG,10800 fluorescence intensity (a.u.)
9,GGGCGCGATGGGTTGGGGTGTGTTTCCGTGGATTGATGACCGGAGTCACCTAGTGCAG,21100 fluorescence intensity (a.u.)
10,TATGTCCTTATTGGTATTCATTTCATGCTCAACCTGTTCGCGGAGTCACCTAGTGCAG,9360 fluorescence intensity (a.u.)
11,CTTTCTACTCTTCTCCAGGAATTGTTTTGGATCATAGTAGCGGAGTCACCTAGTGCAG,8170 fluorescence intensity (a.u.)
12,ATTTTCCCATGCTTGTAGTGGACCTTACCTCTAGCTGAGCCGGAGTCACCTAGTGCAG,8030 fluorescence intensity (a.u.)
13,ATACTCGCTCCGTGTTTTAATATATGACGCTGTTGATTTTCGGAGTCACCTAGTGCAG,12700 fluorescence intensity (a.u.)
14,CTTATTCCGTTGTCATGGGCTCATTGTAACTGGTTGGCCCCGGAGTCACCTAGTGCAG,9240 fluorescence intensity (a.u.)
15,ACCTCTGTTTAATCCCCTTTCCGCGAATTTATTTACATTTCGGAGTCACCTAGTGCAG,9930 fluorescence intensity (a.u.)
16,CGCCCAACTTACTTCGCGTCTACTTCAATTCGCACCGCCACGGAGTCACCTAGTGCAG,12200 fluorescence intensity (a.u.)
17,TCTGCTCGTTGCTCGTTGATTCGCTCGCTTTCTGTCCCTGCGGAGTCACCTAGTGCAG,13200 fluorescence intensity (a.u.)
18,TAATATTTCTTGCGGTGGGTTGGATTGATATCGATTGTTTCGGAGTCACCTAGTGCAG,17600 fluorescence intensity (a.u.)
19,CATTGACTGACGACACAATCCATTCATCTTACTACATACTCGGAGTCACCTAGTGCAG,8050 fluorescence intensity (a.u.)
20,CGGACGGCCCACGTTACACCTGCCATACTCGTCCAGTCTTCGGAGTCACCTAGTGCAG,9560 fluorescence intensity (a.u.)
21,TGTGCCAGTTGTTAGTCATGATCTTCCTGATGTGTCATCCCGGAGTCACCTAGTGCAG,8080 fluorescence intensity (a.u.)

row,Sequence,binding signal
1,TGAGATAAATTTCGAACACTAAGGTGGTGTTTGAGAGGGGCGGAGTCACCTAGTGCAG,8210 fluorescence intensity (a.u.)
2,CAGCACAGCCTAGCCCAGCCCATTCAGCAACACACACAAACGGAGTCACCTAGTGCAG,10500 fluorescence intensity (a.u.)
3,GTTAGCTTAGCAGTAACTCGTTTGTTTTTGGTACATTCATCGGAGTCACCTAGTGCAG,8060 fluorescence intensity (a.u.)
4,TAAATGTTACTCACAATACACACTTCTCGTGTTGTCTATCCGGAGTCACCTAGTGCAG,8360 fluorescence intensity (a.u.)
5,ATACCGCTTGAGTTCATTTTGCCCCTGTTGACTGTTGTTCCGGAGTCACCTAGTGCAG,9710 fluorescence intensity (a.u.)
6,TACTGCCAAGGGATCTCGTTTGTCCGGTTTTCGTAAGTTGCGGAGTCACCTAGTGCAG,8320 fluorescence intensity (a.u.)
7,AGTACACACCATTTGACATCCTGATTATGTATAGTAATTTCGGAGTCACCTAGTGCAG,8350 fluorescence intensity (a.u.)
8,ATGTTTGCCACCGTCGCCCTACCGCTGCTAGCTGCCGCCCCGGAGTCACCTAGTGCAG,11400 fluorescence intensity (a.u.)
9,CGTCGCTTCGGTCTCGACTCCTCGTCTCCTCGGCCGCCGCCGGAGTCACCTAGTGCAG,8150 fluorescence intensity (a.u.)
10,CTCCAGTGCCTCGATTGACTCCAGTATTAATGCTGCGAAGCGGAGTCACCTAGTGCAG,9380 fluorescence intensity (a.u.)
11,CCCTTTCGGTTTTAATTTTTCGGACCGTTTTGTACATACACGGAGTCACCTAGTGCAG,10300 fluorescence intensity (a.u.)
12,GAAAGGCCCTGCTGCGTGACCCGGCAACTCTGGTAGAACCCGGAGTCACCTAGTGCAG,8070 fluorescence intensity (a.u.)
13,TCTTCCACTTTCGCGTGATCTCATATTCTTGCAAACTTTACGGAGTCACCTAGTGCAG,13800 fluorescence intensity (a.u.)
14,TCACACTGCTCCACAGCCATCCATCCCTCCGCCGCCGCCGCGGAGTCACCTAGTGCAG,9780 fluorescence intensity (a.u.)
15,CTACCAATCTGTAGCCCGCTGTTCTTTTCTCTCCTTATTTCGGAGTCACCTAGTGCAG,12200 fluorescence intensity (a.u.)
16,TTGGTTCGGTTTTTTCTGCCCGCGTCGGTTTTTGTCTCACCGGAGTCACCTAGTGCAG,20100 fluorescence intensity (a.u.)
17,ATTTTTTGGGGCCACTCCTTTTCCATCGCGCTAACTCCCGCGGAGTCACCTAGTGCAG,8250 fluorescence intensity (a.u.)
18,GCTTTCCATTCTGATTTTGTCCTTTTCACCTACCAAAACGCGGAGTCACCTAGTGCAG,8260 fluorescence intensity (a.u.)
19,ACCCGTTTGGATCGCACTGACTCGCTGACCATCACTGTGACGGAGTCACCTAGTGCAG,9110 fluorescence intensity (a.u.)
20,GATGTTCTTGGATGATTATTATGTGATTTTGTGTTGATTGCGGAGTCACCTAGTGCAG,9010 fluorescence intensity (a.u.)
21,ACCATCACTTTTACTCTCTTTCTGCCTTAAAATCTCAATACGGAGTCACCTAGTGCAG,8590 fluorescence intensity (a.u.)

# No new results follow: an excerpt of the list.
row,Sequence,binding signal
13,TCTTCCACTTTCGCGTGATCTCATATTCTTGCAAACTTTACGGAGTCACCTAGTGCAG,13800 fluorescence intensity (a.u.)
14,TCACACTGCTCCACAGCCATCCATCCCTCCGCCGCCGCCGCGGAGTCACCTAGTGCAG,9780 fluorescence intensity (a.u.)

# Following part

row,Sequence,binding signal
1,TGCTGTTCTTGTACTTGTACAGTTTGGATTGTGGTTTTATCGGAGTCACCTAGTGCAG,10400 fluorescence intensity (a.u.)
2,GTCGCCCTGAATTTCACCTGCATCCGCCCGCTTGTGACGTCGGAGTCACCTAGTGCAG,10100 fluorescence intensity (a.u.)
3,GGGAGGGCAACTGAAGAGGAGTGGCGAGGGAGGGCTTTTGCGGAGTCACCTAGTGCAG,12200 fluorescence intensity (a.u.)
4,ACGGCACTATATAAACCCATCTTAACGACACCTGATTAGCCGGAGTCACCTAGTGCAG,9100 fluorescence intensity (a.u.)
5,ATCTCTCTCTCTCTCTCTCTCTCTCTCCGTGTCGTCGGGCCGGAGTCACCTAGTGCAG,8430 fluorescence intensity (a.u.)
6,ATATCTCTATTCTATGCATTAGTCATACATGATTTTGAATCGGAGTCACCTAGTGCAG,8370 fluorescence intensity (a.u.)
7,TTTCAGGTCGACTTCCCCAGCTTGAACCTGACTTGAATCACGGAGTCACCTAGTGCAG,8780 fluorescence intensity (a.u.)
8,CGCCTCCGATCCCACAGTCTCTCTCTCTCTCTCTCTCTCTCGGAGTCACCTAGTGCAG,8350 fluorescence intensity (a.u.)
9,CCCCGGCGCCCCGCTTCTACCCTCTCCCGGCGACGCCTTGCGGAGTCACCTAGTGCAG,9420 fluorescence intensity (a.u.)
10,GGGTTGGTCCGCGTTCTTGCCTCCTGGTTGGCCGATGTTTCGGAGTCACCTAGTGCAG,15700 fluorescence intensity (a.u.)
11,AAATATCCTGGCCTTAAAATTTCTGCTCTTTTGCTTTGTCCGGAGTCACCTAGTGCAG,8620 fluorescence intensity (a.u.)
12,CCCGCCCGAGCACCGGCGGCCCTTCGTTTCTCCGGCACCTCGGAGTCACCTAGTGCAG,8770 fluorescence intensity (a.u.)
13,ATGGAATTTTGTCTTCCCTAATCGGACGGCTACTCGCGTCCGGAGTCACCTAGTGCAG,8090 fluorescence intensity (a.u.)
14,CAACCCATGAAACCAAAATACTCCGAGGCCCGTTTATTACCGGAGTCACCTAGTGCAG,8660 fluorescence intensity (a.u.)
15,GGAAGCAGCCATCCTCTGCCATTTGCTCGCATGTTGAACGCGGAGTCACCTAGTGCAG,9180 fluorescence intensity (a.u.)
16,GAACTCTCAAGTCTCGAGCCTCATGTTTTTTCCTCTCCACCGGAGTCACCTAGTGCAG,10800 fluorescence intensity (a.u.)
17,CCTTCTCTTCGCGTGATCTTTCTTCGCACGCAGTTGGCACCGGAGTCACCTAGTGCAG,10200 fluorescence intensity (a.u.)
18,ACATGCTATACATCCCAACGGTAACCTCGTTCTCATCATACGGAGTCACCTAGTGCAG,10600 fluorescence intensity (a.u.)
19,GACACGTACGCCCGCATCCGCGCCAGCTCCGACCGCAGCGCGGAGTCACCTAGTGCAG,8220 fluorescence intensity (a.u.)
20,GGTATTAGTGGTTGGGTGCTTTACGCTGCTCGCTGGATCTCGGAGTCACCTAGTGCAG,11900 fluorescence intensity (a.u.)
21,AGCGGCACCCTGGCTTTCCCGTCAGGCACAACCCTTTTTACGGAGTCACCTAGTGCAG,8660 fluorescence intensity (a.u.)

row,Sequence,binding signal
1,AGCTGCCGGCTGGTGTGCACAATGGCTGTTTGTTCCTTGACGGAGTCACCTAGTGCAG,8070 fluorescence intensity (a.u.)
2,TTCGTCGTCCACCACCGTTCGACGAGTTTCTCGCAGATCGCGGAGTCACCTAGTGCAG,8100 fluorescence intensity (a.u.)
3,CTTTTTGGTTGGATATTTGCTTGCAAACTCTATATGTTTTCGGAGTCACCTAGTGCAG,11200 fluorescence intensity (a.u.)
4,GGACCGACCCTTTTATTTGTCCATCCATAATAATTCCGCGCGGAGTCACCTAGTGCAG,9300 fluorescence intensity (a.u.)
5,TTTTAGATTTTAATTTCTTCTTCATCTCTTTCATTCATTTCGGAGTCACCTAGTGCAG,8570 fluorescence intensity (a.u.)
6,GCGCCGGCTGATCCGGAACCCCAACACGTACGCCAGCCTCCGGAGTCACCTAGTGCAG,9980 fluorescence intensity (a.u.)
7,AGTGTCAAGCTAGCTCTACACATTGTACAACCACACTACACGGAGTCACCTAGTGCAG,8510 fluorescence intensity (a.u.)
8,AACGCCGCCACCACCACCGCCGCCGCCTCCTGAATAGATTCGGAGTCACCTAGTGCAG,9170 fluorescence intensity (a.u.)
9,CCTGTTCTCTTCTTCTATACATGCAAGCAAAAAATTCGAACGGAGTCACCTAGTGCAG,9810 fluorescence intensity (a.u.)
10,TGTTCCAGTGTGGCAACTAGCACTTCCCACGTCCTTGCCACGGAGTCACCTAGTGCAG,8030 fluorescence intensity (a.u.)
11,CTTTGAGTCGTCTCTCTCATTCAACTCGTACATTTTTTCTCGGAGTCACCTAGTGCAG,9930 fluorescence intensity (a.u.)
12,GCGTTGGATTTGATTGGGCCTCACCGAAATTTCGGTCCGACGGAGTCACCTAGTGCAG,8880 fluorescence intensity (a.u.)
13,AGCCGCAGCCCGCCACTCGCCTCCGCCCTCCGCGCGCGCGCGGAGTCACCTAGTGCAG,9950 fluorescence intensity (a.u.)
14,GGCGGCCGGAGCGGCGCGACTTCCCATCTAACATATTGCTCGGAGTCACCTAGTGCAG,8130 fluorescence intensity (a.u.)
15,TCCGATCCATCCATCCCTACCGTCCATCATCGGGCCACCACGGAGTCACCTAGTGCAG,12300 fluorescence intensity (a.u.)
16,AAAATATTGTATATTCTTGGTTTGTGTCTATAACTCTCTTCGGAGTCACCTAGTGCAG,8480 fluorescence intensity (a.u.)
17,CGCCGTTGACTTTTTCTCATATGTTTGACCATTCATCTTACGGAGTCACCTAGTGCAG,38900 fluorescence intensity (a.u.)
18,CGCCCAATTCATGACGCCTCCTCGCCGGCTTCGCCGCACTCGGAGTCACCTAGTGCAG,8620 fluorescence intensity (a.u.)
19,GATCTCTTTTTCGCCGCGCGTGAAGCCCATCTCCCTGCCACGGAGTCACCTAGTGCAG,8460 fluorescence intensity (a.u.)
20,AAATCATCGTCATTGTCGTTGTTTTGTTGTTGCCAGTTTACGGAGTCACCTAGTGCAG,8450 fluorescence intensity (a.u.)
21,TCTCCTGCTCTGGTCTCTCCATCACCTAATAGGACCCATCCGGAGTCACCTAGTGCAG,8380 fluorescence intensity (a.u.)

# Pulled one by one from the list above:
row,Sequence,binding signal
6,CTCTTTCCTGGCCCATCTGATTCCTCTCCCTTTTTCTGTGCGGAGTCACCTAGTGCAG,10800 fluorescence intensity (a.u.)
2,TCCACTCGCTCTAGTTTGCCTCGTCCCCGCCGCCACCACACGGAGTCACCTAGTGCAG,8760 fluorescence intensity (a.u.)
8,CGCCTCCGATCCCACAGTCTCTCTCTCTCTCTCTCTCTCTCGGAGTCACCTAGTGCAG,8350 fluorescence intensity (a.u.)

# — publication PMC7819943, “Rice protein-binding microarrays: a tool to detect cis-acting elements near promoter regions in rice”
